Data as given in PubChem BioAssay AID1159578 (Peter MacCallum Cancer Centre, 2015)
The deposit covers about 18,000 reagents; shown is an unselected part. About 1,030 of them (5.7%) were called active. 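Inactive calls also include pools with fewer than 3300 nuclei, whose migration was not assessed.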 The raw values are shown without normalisation. Entries without a mark were called inactive.

Assay: 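Genome-wide hunt for genes controlling movement of lymphatic endothelial cells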 (primary screen)
System: human lymphatic endothelial cells
Knock-down reagent: siRNA pool against human genes, 40 nM
Time to read-out: 48 h after transfection
Detection: 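High-content imaging of dye-stained cells in a scratch assay measures filled wound area and nuclei per well; duplicate means given as ratio to mock and robust z-score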
Reading the numbers: migration robust z-score: higher = faster migration into the scratch; migration relative to mock: higher = more scratch area covered than mock; nuclei per well: higher = more cells in the well
Rule for the call: 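Pools averaging fewer than 3300 nuclei are never called; remaining pools count as changed when migration robust z lies outside -2 to 2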
Calls: active = migration changed; inactive = no migration change, or too few cells

Gene	migration robust z-score	migration class with cell-count check	migration relative to mock	nuclei per well, duplicate mean
PA2G4	0.36	migration z between -2 and 2; enough cells	0.88	5094
ZC3H7B	0.58	migration z between -2 and 2; enough cells	1.04	4710
WNT16	1.24	migration z between -2 and 2; enough cells	1.21	7128
NUBP1	-0.1	migration z between -2 and 2; enough cells	0.78	6304
PAFAH1B1	-0.16	migration z between -2 and 2; enough cells	0.78	5108
FHOD1	-0.48	migration z between -2 and 2; enough cells	0.76	5788
AP4S1	0.8	migration z between -2 and 2; enough cells	1.09	5183
HAUS4	1.04	migration z between -2 and 2; enough cells	1.15	5959
GSK3A	-0.7	migration z between -2 and 2; enough cells	0.67	5564
TAS1R1	-0.68	migration z between -2 and 2; enough cells	0.71	5614
RGS10	-1.02	migration z between -2 and 2; enough cells	0.62	4136
OR4D11	-0.02	migration z between -2 and 2; enough cells	0.88	6399
KRT78	-0.22	migration z between -2 and 2; enough cells	0.83	4552
ANK3	0.8	migration z between -2 and 2; enough cells	0.96	5821
LTBP2	-0.57	migration z between -2 and 2; enough cells	0.74	4670
SLC38A9	1.27	migration z between -2 and 2; enough cells	1.21	5020
FLNB	-1.08	migration z between -2 and 2; enough cells	0.6	5336
GANAB	0.18	migration z between -2 and 2; enough cells	0.84	5172
C1QTNF6	-0.62	migration z between -2 and 2; enough cells	0.73	5454
FNBP1L	-0.36	migration z between -2 and 2; enough cells	0.79	6028
TENT4B	-0.83	migration z between -2 and 2; enough cells	0.64	6326
FAM168B	0.1	migration z between -2 and 2; enough cells	0.91	6250
DMXL1	0.03	migration z between -2 and 2; enough cells	0.9	6382
RGS7BP	1.9	migration z between -2 and 2; enough cells	1.38	5942
NOC3L	2.48 (active)	migration z above 2; enough cells	1.53	6205
ALK	-2.31 (active)	migration z below -2; enough cells	0.36	4854
LIX1	0.15	migration z between -2 and 2; enough cells	0.92	5455

Next part (6 carried over from the part before).
Gene	migration robust z-score	migration class with cell-count check	migration relative to mock	nuclei per well, duplicate mean
FAM168B	0.1	migration z between -2 and 2; enough cells	0.91	6250
DMXL1	0.03	migration z between -2 and 2; enough cells	0.9	6382
RGS7BP	1.9	migration z between -2 and 2; enough cells	1.38	5942
NOC3L	2.48 (active)	migration z above 2; enough cells	1.53	6205
ALK	-2.31 (active)	migration z below -2; enough cells	0.36	4854
LIX1	0.15	migration z between -2 and 2; enough cells	0.92	5455
STX12	-0.89	migration z between -2 and 2; enough cells	0.65	4840
ORC1	0.82	migration z between -2 and 2; enough cells	1.1	5874
BMP8B	-0.5	migration z between -2 and 2; enough cells	0.71	5884
SP140	0.19	migration z between -2 and 2; enough cells	0.94	5570
AGRP	-0.56	migration z between -2 and 2; enough cells	0.74	6004
SOAT1	-0.57	under 3300 nuclei; migration not judged	0.7	3180
NRN1	1.26	migration z between -2 and 2; enough cells	1.22	5933
SOHLH1	-0.28	migration z between -2 and 2; enough cells	0.82	6406
CTSZ	-0.42	migration z between -2 and 2; enough cells	0.72	6364
NOD1	0.6	migration z between -2 and 2; enough cells	0.92	6464
DENND2D	1.68	migration z between -2 and 2; enough cells	1.32	4996
PPP1R18	-1.29	migration z between -2 and 2; enough cells	0.55	5734
RNF170	1.53	migration z between -2 and 2; enough cells	1.1	6454
NR1I2	-1.22	migration z between -2 and 2; enough cells	0.57	4298
NPVF	-0.78	migration z between -2 and 2; enough cells	0.68	6571
DCLK2	-1.43	migration z between -2 and 2; enough cells	0.53	6370
ASB11	-0.07	migration z between -2 and 2; enough cells	0.79	5417
CHST5	-3.11 (active)	migration z below -2; enough cells	0.2	4434
ELAVL1	0.5	migration z between -2 and 2; enough cells	1.01	6280
PIPOX	-1.34	migration z between -2 and 2; enough cells	0.55	5344
FUNDC1	0.07	migration z between -2 and 2; enough cells	0.9	5663
CIB4	-0.08	migration z between -2 and 2; enough cells	0.86	6184
HDC	1.06	migration z between -2 and 2; enough cells	1.01	6263
RAB5A	-0.24	migration z between -2 and 2; enough cells	0.76	4641
PTPN5	0.83	migration z between -2 and 2; enough cells	0.96	6114
B9D1	-0.73	migration z between -2 and 2; enough cells	0.7	5002
ARID5B	0	migration z between -2 and 2; enough cells	0.8	6662
AOC3	-2.59 (active)	migration z below -2; enough cells	0.3	6349
ADAM33	-1.69	migration z between -2 and 2; enough cells	0.48	5623
GZMB	1.94	migration z between -2 and 2; enough cells	1.18	5925
